Measured values: paper PMC2329594, “A Minimal Fragment of MUC1 Mediates Growth of Cancer Cells” (PLoS ONE, 2008)
These are yes or no findings as the source states them, for the method shown. For some assays here: Binding seen in cells or lysates may run through a third protein. Some entries that bind do so weakly or less than the wild type. Blank lines part the entries; values can stand above or below the substance they belong to.

The chains behind the UniProt entries cited, without tags or fusion partners. Where a name states a change or a piece, a line headed by the entry shows the natural chain unless it says otherwise. Residues count along the entry.
UniProt P15941, residues 1110-1154: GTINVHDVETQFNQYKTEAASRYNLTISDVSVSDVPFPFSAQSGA
UniProt P15531: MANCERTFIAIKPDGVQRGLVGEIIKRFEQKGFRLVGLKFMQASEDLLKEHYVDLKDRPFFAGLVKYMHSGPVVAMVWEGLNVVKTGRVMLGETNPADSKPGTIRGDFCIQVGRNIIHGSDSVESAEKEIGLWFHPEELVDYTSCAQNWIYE
UniProt P22392: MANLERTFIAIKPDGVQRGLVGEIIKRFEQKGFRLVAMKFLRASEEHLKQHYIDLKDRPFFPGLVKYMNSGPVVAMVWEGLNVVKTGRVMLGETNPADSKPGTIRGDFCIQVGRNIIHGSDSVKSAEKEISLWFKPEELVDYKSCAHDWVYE

Tests used:
[1] = biological target: MUC1*_(1110-ecd) peptide (human) (UniProt P15941); experiment: gold nanoparticle aggregation (colour change); histidine-tagged peptides (100 uM in PBS) on NTA-Ni gold nanoparticles, alone or mixed; colour change after 15 minutes; both purified
[2] = biological target: T1, Irrelevant peptide (SPR control surface); experiment: SPR; Biacore3000; His-tagged peptides on NTA-Ni SAM chips; 35 uL plugs of NM23 at 5 uL/minute; bovine NM23 in PBS, recombinant human NM23 in PBS with 15 mM imidazole; control peptide on a second flow channel; 1:1 Langmuir model; both purified
T1 sequence (peptide): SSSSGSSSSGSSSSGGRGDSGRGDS

[3] = biological target: T2, Irrelevant peptide (ligand fishing control, Figure S3); experiment: pull-down; MUC1*1110-ecd or irrelevant peptide on NTA-agarose beads; T47D cell lysate in PBS with 0.1% NP40 (text: lysate/supernatant mixtures); eluted with 250 mM imidazole; SDS-PAGE, silver staining, N-terminal microsequencing of the bands; only the target purified
T2 sequence (peptide): ARKCSLTGKWTNDLGSNMT

[4] = biological target: MUC1*_(1110-ecd) peptide (human) (UniProt P15941); experiment: as above

- binding [1]: no binding
Substance: MUC1*_(1110-ecd) peptide (from UniProt P15941 1110-1154)

- binding [2]: no binding (tested: 15 nM)
Substance: NM23 (as injected at 15 nM in Figure 4E) (from UniProt P15531 1-152)

- binding [3]: no binding
Substance: NM23 isoform H1 (23 kDa band from T47D cells) (from UniProt P15531 1-152)

- binding [4]: binds
- binding [3]: no binding
Substance: NM23 isoform H2 (17 kDa band from T47D cells) (from UniProt P22392 1-152)
